Earlier results in US9944597B2, “Polysubstituted pyrroles having microtubule-disrupting, cytotoxic and antitumor activities and methods of use thereof” (THE BOARD OF REGENTS OF THE UNIVERSITY OF TEXAS SYSTEM, priority 2013, dated 2018).

Test system: MDA-MB-435 (human melanoma cancer cells)
Details: Table 53; literature data from Da et al. 2013; read-out: MDA-MB-435 Antiproliferative IC50; cited from earlier work

For `COc1cc2c(c(OC)c1OC)-c1ccc(OC)c(=O)cc1[C@@H](NC(C)=O)CC2` [colchicine, Colchicine], the IC50 is given as 16 ± 2 nM.
